No constants are given. Whether binding was seen depends on the method and setting. Binding seen in cells or lysates may run through a third protein. Some entries that bind do so weakly or less than the wild type. For part of these data: Sequences can lack the tags named with a protein. One block for each binder: values may come before it.
Legend:
Vps1–GFP (S. cerevisiae) = target: T1, Vps1–GFP (S. cerevisiae) (UniProt P21576); experiment: co-IP; GFP fusions precipitated from yeast lysate with GFP-Trap agarose (GFP–nanobody beads, ChromoTek), 2 h at 4°C; lysis buffer 50 mM HEPES-KOH pH 7.6, 150 mM KCl, 100 mM β-glycerol phosphate, 25 mM NaF, 1 mM EGTA, 1 mM MgCl2, 0.15% Tween-20; western blot with anti-GFP, anti-Vps1 and PAP
T1 sequence: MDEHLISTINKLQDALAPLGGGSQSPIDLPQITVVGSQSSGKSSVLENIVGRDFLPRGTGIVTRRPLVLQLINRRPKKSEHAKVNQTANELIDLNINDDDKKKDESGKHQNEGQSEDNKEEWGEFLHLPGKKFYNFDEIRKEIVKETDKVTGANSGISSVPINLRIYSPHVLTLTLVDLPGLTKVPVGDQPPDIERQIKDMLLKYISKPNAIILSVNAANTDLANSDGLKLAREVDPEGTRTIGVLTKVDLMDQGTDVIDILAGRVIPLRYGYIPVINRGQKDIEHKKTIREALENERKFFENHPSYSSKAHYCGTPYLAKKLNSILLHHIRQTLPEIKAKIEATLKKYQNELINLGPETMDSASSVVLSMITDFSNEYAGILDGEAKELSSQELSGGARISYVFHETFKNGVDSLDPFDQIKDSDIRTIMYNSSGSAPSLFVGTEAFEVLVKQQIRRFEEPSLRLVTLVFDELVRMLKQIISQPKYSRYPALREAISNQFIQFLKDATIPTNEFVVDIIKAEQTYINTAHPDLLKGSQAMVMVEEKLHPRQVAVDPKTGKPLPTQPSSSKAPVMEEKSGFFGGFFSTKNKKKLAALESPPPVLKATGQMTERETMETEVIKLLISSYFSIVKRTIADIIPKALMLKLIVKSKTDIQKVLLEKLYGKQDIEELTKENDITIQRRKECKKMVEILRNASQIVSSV

Vn–Atg11 (S. cerevisiae) = target: T2, Vn–Atg11 (S. cerevisiae) (UniProt Q12527); experiment: split reporter; bimolecular fluorescence complementation of Vn–Atg11 and Vps1–Vc (Venus) in WT, atg36Δ and pex27Δ yeast cells expressing HcRed–PTS1; grown overnight on oleate-containing medium, then starved 6 h on 2% glucose-containing medium lacking nitrogen
T2 sequence: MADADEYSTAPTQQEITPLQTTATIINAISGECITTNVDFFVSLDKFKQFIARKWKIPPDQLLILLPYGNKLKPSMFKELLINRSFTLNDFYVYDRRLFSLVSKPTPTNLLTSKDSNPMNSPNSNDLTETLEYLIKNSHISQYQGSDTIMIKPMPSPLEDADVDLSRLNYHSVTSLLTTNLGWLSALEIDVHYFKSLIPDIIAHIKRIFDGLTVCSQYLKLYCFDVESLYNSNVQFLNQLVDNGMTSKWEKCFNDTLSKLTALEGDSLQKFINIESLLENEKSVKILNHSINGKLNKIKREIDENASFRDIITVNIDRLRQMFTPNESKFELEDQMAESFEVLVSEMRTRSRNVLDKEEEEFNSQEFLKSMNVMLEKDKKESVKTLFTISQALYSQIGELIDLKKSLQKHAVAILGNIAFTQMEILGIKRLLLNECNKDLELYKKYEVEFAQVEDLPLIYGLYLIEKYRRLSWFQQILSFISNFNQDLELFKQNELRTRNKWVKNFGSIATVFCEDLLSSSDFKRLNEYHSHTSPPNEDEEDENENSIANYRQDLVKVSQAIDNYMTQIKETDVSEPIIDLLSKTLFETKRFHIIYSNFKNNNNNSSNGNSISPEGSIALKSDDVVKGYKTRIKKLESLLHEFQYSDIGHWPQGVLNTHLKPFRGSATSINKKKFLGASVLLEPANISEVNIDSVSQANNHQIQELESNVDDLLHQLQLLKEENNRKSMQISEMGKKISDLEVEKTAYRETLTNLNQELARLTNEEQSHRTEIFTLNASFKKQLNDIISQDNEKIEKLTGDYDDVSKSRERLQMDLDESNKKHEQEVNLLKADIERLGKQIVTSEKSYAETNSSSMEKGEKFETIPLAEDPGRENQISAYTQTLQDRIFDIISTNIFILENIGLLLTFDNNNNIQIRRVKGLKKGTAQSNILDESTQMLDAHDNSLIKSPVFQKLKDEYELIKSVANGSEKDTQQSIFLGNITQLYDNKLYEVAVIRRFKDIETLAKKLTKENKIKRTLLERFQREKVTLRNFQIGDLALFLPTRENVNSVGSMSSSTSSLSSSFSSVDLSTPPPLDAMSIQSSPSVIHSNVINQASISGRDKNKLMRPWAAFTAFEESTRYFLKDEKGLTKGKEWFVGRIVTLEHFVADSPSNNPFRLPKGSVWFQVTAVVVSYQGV

binding (Vps1–GFP (S. cerevisiae)): binds
B1: endogenous Vps1 (protein, UniProt P21576 1-704)
chain: T1 sequence

binding (Vn–Atg11 (S. cerevisiae)): binds
B2: Vps1–Vc (protein, UniProt P21576 1-704)
chain: T1 sequence

binding (Vps1–GFP (S. cerevisiae)): binds
B3: Pex27–TAP (protein, UniProt Q08580 1-376)
chain: MTSDPVNTNISSPTLTDRNADESWELLKREFNTLFSNLKTDSKEEGNFTDNKGVIAKKPIVLQDNDDSDFTQNQGKVATATSTTSDRSFKRTLGSIEMKKRYVKKNCQAKFVFNTLEGKEVCSKILQHTLGLLSLLLLTRKIRLLNFSSKLRLVIQQLSLFRYYLRFGNFAINLYKIIKRFRWLREMKKLHYKDQSILFYFKNFRFFDIIEAFYNLTDELILFHKLQSMFGKKNTSHANTNRLMTFVKEQHYILWEVLNILAINKNIEQWRQLIRDEIYLSIYNTSGNAIKEYELKYKLPTNDKVNLELRKNNITLDFYKIILNLLSNLINIKGKRDKYNSELAYEIISVGSGVTELLKLWNRAKVTSANEHTSAV

Reference: article PMC10112978
